Experimental data taken from US20090022803A1, “Oral Formulations For Delivery of Catecholic Butanes Including Ndga Compounds” (priority 2005, published 2009).
Read-outs that look alike come from different tables or passages of the source. Further values from the same series stand in other lists.

Type: physicochemical
Protocol: A 10 mL solution of M4N at a concentration of about 10 mg/mL in 40% BP-β-CD was made as follows. About 10 mL of the 40% HP-β-CD solution were added to a glass beaker containing a stir bar. The beaker was placed on a magnetic plate and the stir bar was set to stir at medium speed. About […] of M4N were slowly added to the 40% HP-β-CD in the center of the beaker with the aid of a spatula. The M4N/40% HP-β-CD mixture was stirred for 2 hr or until all M4N was uniformly suspended without any clumps being present. The M4N/40% HP-β-CD mixture was optionally heated at 80° C. for about 30 min. (or longer if a larger volume of solution was desired, for example, 1 hr at 80° C. for 100 mL of the M4N/HP-β-CD mixture), or longer as needed to ensure complete dissolution of M4N. […] The final M4N/40% HP-β-CD solution was stored at room temperature and was kept protected from light. This process may be scaled up or down to obtain the requisite volume or concentration of M4N. Formulations containing M4N in other cyclodextrin solutions may be similarly made, such as, for example, by substituting HP-β-CD in the process described above with other cyclodextrins. […]
A 10 mL solution of M4N at a concentration of about 10 mg/mL in 50% HP-β-CD/0.5% HPMC was made as follows. About 10 mL of the 50% HP-β-CD/0.5% HPMC solution were added to a glass beaker containing a stir bar. The beaker was placed on a magnetic plate and the stir bar was set to stir at medium speed. About 100 mg of M4N were slowly added to the 50% HP-β-CD/0.5% HPMC in the center of the beaker with the aid of a spatula. The M4N/50% HP-β-CD/0.5% HPMC mixture was stirred for 24 hr or until all M4N was uniformly suspended without any clumps being present. The M4N/50% HP-β-CD/0.5% HPMC mixture was heated at about 90° C. for about 30 min. (or longer if a larger volume of solution was desired, for example, 1 hr at 90° C. for 500 mL of the M4N/50% HP-β-CD/0.5% HPMC mixture), or longer as needed to ensure complete dissolution of M4N. […] The final M4N/50% HP-β-CD/0.5% HPMC solution was stored at room temperature and was kept protected from light.
A 10 mL solution of M4N at a concentration of about 20 mg/mL in 5% EC (w/v) (the “EC formulation”) was made as follows. About 10 mL of 5% EC formulation, made as described above, were added to a glass beaker containing a stir bar. The beaker was placed on a magnetic plate and the stir bar was set to stir at medium speed, and covered with a round Teflon® cover. About 200 mg of M4N were slowly added to the 5% EC formulation in the center of the beaker with the aid of a spatula to prevent M4N from sticking to the beaker wall. The M4N/EC mixture was stirred for 2 hr or until all M4N had dissolved or was uniformly suspended without any clumps being present. The M4N/EC mixture was heated at about 60° C. for about 30 min. (or longer if a larger volume of solution was desired, for example, 1 hr at 60° C. for 500 mL of the M4N/EC mixture), or longer as needed to ensure complete dissolution of M4N. […] The final M4N/EC solution was stored at room temperature and was kept protected from light.
A 10 mL solution of M4N at a concentration of about 50 mg/mL in sesame oil was made as follows. About 10 mL of sesame oil were added to a glass beaker containing a stir bar. The beaker was placed on a magnetic plate and the stir bar was set to stir at medium speed. About 500 mg of M4N were slowly added to the sesame oil in the center of the beaker with the aid of a spatula to prevent M4N from sticking to the beaker wall. The M4N/sesame oil mixture was stirred for about 2 hr or until all M4N had dissolved or was uniformly suspended without any clump being present. The M4N/sesame oil mixture was heated at about 60° C. for about 30 min. (or longer if a larger volume of solution was desired, for example, 1 hr at 60° C. for 500 mL of the M4N/sesame oil mixture), or longer as need to ensure complete dissolution of M4N. […]
Wherever Dissolution After Cool Down is given: key: N represents 'No'; Y represents 'Yes.'.

COc1ccc(C[C@@H](C)[C@@H](C)Cc2ccc(OC)c(OC)c2)cc1OC [Formulation M4N, meso-1,4-bis(3,4-dimethoxyphenyl)-2,3-dimethylbutane]
Y at 60 °C: Dissolution After Heating (M4N 60 mg/mL in Corn Oil, 60° C.) | Dissolution After Heating (M4N 100 mg/g in 50% Soybean Oil, 50% Beeswax (w/w), 60° C.) | Dissolution After Heating (M4N 100 mg/mL in Camillia Oil, 60° C.) | Dissolution After Heating (M4N 100 mg/mL in Corn Oil, 60° C.) | Dissolution After Heating (M4N 100 mg/mL in Mineral Oil, 60° C.) | Dissolution After Heating (M4N 200 mg/g in 75% Soybean Oil, 25% Beeswax (w/w), 60° C.) | Dissolution After Heating (M4N 200 mg/g in 90% Olive Oil, 10% Beeswax (w/w), 60° C.) | Dissolution After Heating (M4N 200 mg/g in 90% Soybean Oil, 10% Beeswax (w/w), 60° C.) | Dissolution After Heating (M4N 200 mg/g in 95% Olive Oil, 5% Beeswax (w/w), 60° C.) | Dissolution After Heating (M4N 200 mg/g in 95% Soybean Oil, 5% Beeswax (w/w), 60° C.) | Dissolution After Heating (M4N 200 mg/mL in Mineral Oil, 60° C.) | Dissolution After Heating (TPGS 20% (w/v), M4N 10 mg/ml, heating at 60° C.) | Dissolution After Heating (TPGS 20% (w/v), M4N 125 mg/ml, heating at 60° C.) | Dissolution After Heating (TPGS 20% (w/v), M4N 200 mg/ml, heating at 60° C.)
Y at 40 °C: Dissolution After Heating (M4N 60 mg/mL in Peppermint Oil, 40° C.) | Dissolution After Heating (M4N 100 mg/mL in 50% Peppermint Oil, 50% PEG 400, 40° C.) | Dissolution After Heating (M4N 100 mg/mL in Peppermint Oil, 40° C.) | Dissolution After Heating (M4N 125 mg/mL in 50% Peppermint Oil, 50% PEG 400, 40° C.) | Dissolution After Heating (M4N 125 mg/mL in 50% Peppermint Oil, 50% Tween ® 20, 40° C.) | Dissolution After Heating (M4N 125 mg/mL in Peppermint Oil, 40° C.)
N: Dissolution After Rotation (M4N 60 mg/mL in Corn Oil) | Dissolution After Rotation (M4N 60 mg/mL in Peppermint Oil) | Dissolution After Rotation (M4N 100 mg/g in 50% Soybean Oil, 50% Beeswax (w/w)) | Dissolution After Rotation (M4N 100 mg/mL in 50% Peppermint Oil, 50% PEG 400) | Dissolution After Rotation (M4N 100 mg/mL in Camillia Oil) | Dissolution After Rotation (M4N 100 mg/mL in Corn Oil) | Dissolution After Rotation (M4N 100 mg/mL in Eugenol, Beeswax, Olive Oil, 0.5% (v/v) Eugenol) | Dissolution After Rotation (M4N 100 mg/mL in Mineral Oil) | Dissolution After Rotation (M4N 100 mg/mL in Peppermint Oil) | Dissolution After Rotation (M4N 125 mg/mL in 50% Peppermint Oil, 50% PEG 300) | Dissolution After Rotation (M4N 125 mg/mL in 50% Peppermint Oil, 50% PEG 400) | Dissolution After Rotation (M4N 125 mg/mL in 50% Peppermint Oil, 50% Tween ® 20) | Dissolution After Rotation (M4N 125 mg/mL in Peppermint Oil) | Dissolution After Rotation (M4N 200 mg/g in 75% Soybean Oil, 25% Beeswax (w/w)) | Dissolution After Rotation (M4N 200 mg/g in 90% Olive Oil, 10% Beeswax (w/w)) | Dissolution After Rotation (M4N 200 mg/g in 90% Soybean Oil, 10% Beeswax (w/w)) | Dissolution After Rotation (M4N 200 mg/g in 95% Olive Oil, 5% Beeswax (w/w)) | Dissolution After Rotation (M4N 200 mg/g in 95% Soybean Oil, 5% Beeswax (w/w)) | Dissolution After Rotation (M4N 200 mg/mL in Mineral Oil) | Dissolution After Cool-Down (PEG 300 100%, M4N 100 mg/mL, after heating at 60° C.) | Dissolution After Rotation (PEG 400 mono-laurate 100%, M4N 20 mg/mL) | Dissolution After Rotation (PEG 400 mono-laurate 100%, M4N 50 mg/mL) | Dissolution After Rotation (PVP 15% (w/v), M4N 1 mg/mL) | Dissolution After Rotation (PVP 15% (w/v), M4N 10 mg/mL) | Dissolution After Rotation (Propylene Glycol 100% (w/v), M4N 1 mg/mL) | Dissolution After Rotation (Propylene Glycol 100% (w/v), M4N 10 mg/mL) | Dissolution After Rotation (Propylene Glycol 100% (w/v), M4N 20 mg/mL) | Dissolution After Rotation (TPGS 20% (w/v), M4N 1 mg/ml) | Dissolution After Rotation (TPGS 20% (w/v), M4N 10 mg/ml) | Dissolution After Rotation (TPGS 20% (w/v), M4N 125 mg/ml) | Dissolution After Rotation (TPGS 20% (w/v), M4N 200 mg/ml) | Dissolution After Cool Down (Tween ® 20 100% (v/v), M4N 80 mg/ml, after heating at 50° C.) | Dissolution After Cool Down (Tween ® 20 100% (v/v), M4N 100 mg/ml, after heating at 50° C.)
N at 90 °C: Dissolution After Heating (M4N 100 mg/mL in 2.3% HPMC, 90° C.)
Y at 35 °C: Dissolution After Heating (M4N 125 mg/mL in 50% Peppermint Oil, 50% PEG 300, 35° C.)
Y at 50 °C: Dissolution After Heating (M4N 100 mg/mL in Eugenol, Beeswax, Olive Oil, 0.5% (v/v) Eugenol, 50° C.)
Y at 90 °C: Dissolution After Heating (M4N 100 mg/mL in 5% EC in EtOH, 90° C.)
Y: Dissolution After Cool-Down (PEG 300 100%, M4N 30 mg/mL, after heating at 50° C.) | Dissolution After Cool-Down (PEG 300 100%, M4N 40 mg/mL, after heating at 50° C.) | Dissolution After Cool-Down (PEG 300 100%, M4N 50 mg/mL, after heating at 60° C.) | Dissolution After Cool Down (Tween ® 20 100% (v/v), M4N 10 mg/ml, after heating at 50° C.) | Dissolution After Cool Down (Tween ® 20 100% (v/v), M4N 20 mg/ml, after heating at 50° C.) | Dissolution After Cool Down (Tween ® 20 100% (v/v), M4N 40 mg/ml, after heating at 50° C.) | Dissolution After Cool Down (Tween ® 20 100% (v/v), M4N 60 mg/ml, after heating at 50° C.) | Dissolution After Cool Down (Tween ® 80 100% (v/v), M4N 10 mg/ml, after heating at 50° C.) | Dissolution After Cool Down (Tween ® 80 100% (v/v), M4N 50 mg/ml, after heating at 50° C.)
Creamy: Dissolution After Cool Down (TPGS 20% (w/v), M4N 1 mg/ml, after heating at 30° C.) | Dissolution After Cool Down (TPGS 20% (w/v), M4N 10 mg/ml, after heating at 60° C.) | Dissolution After Cool Down (TPGS 20% (w/v), M4N 125 mg/ml, after heating at 60° C.) | Dissolution After Cool Down (TPGS 20% (w/v), M4N 200 mg/ml, after heating at 60° C.)
N at: Dissolution After Heating (PEG 300 33%, M4N 10 mg/mL, heating at 50° C.) | Dissolution After Heating (PEG 400 5%, M4N 10 mg/mL, heating at 50° C.) | Dissolution After Heating (PVP 15% (w/v), M4N 1 mg/mL, heating at 90° C.) | Dissolution After Heating (PVP 15% (w/v), M4N 10 mg/mL, heating at 90° C.)
Y at 30 °C: Dissolution After Heating (TPGS 20% (w/v), M4N 1 mg/ml, heating at 30° C.)
Suspension: Dissolution After Rotation (TPGS 20% (w/v), M4N 60 mg/ml) | Dissolution After Rotation (TPGS 20% (w/v), M4N 100 mg/ml)
Y at: Dissolution After Heating (PEG 300 100%, M4N 25 mg/mL, heating at 50° C.) | Dissolution After Heating (PEG 300 100%, M4N 30 mg/mL, heating at 50° C.) | Dissolution After Heating (PEG 300 100%, M4N 40 mg/mL, heating at 50° C.) | Dissolution After Heating (PEG 300 100%, M4N 50 mg/mL, heating at 60° C.) | Dissolution After Heating (PEG 300 100%, M4N 100 mg/mL, heating at 60° C.) | Dissolution After Heating (PEG 400 100%, M4N 25 mg/mL, heating at 50° C.) | Dissolution After Heating (PEG 400 100%, M4N 30 mg/mL, heating at 50° C.) | Dissolution After Heating (PEG 400 100%, M4N 40 mg/mL, heating at 50° C.) | Dissolution After Heating (PEG 400 100%, M4N 50 mg/mL, heating at 60° C.) | Dissolution After Heating (PEG 400 100%, M4N 100 mg/mL, heating at 60° C.) | Dissolution After Heating (PEG 400 mono-laurate 100%, M4N 20 mg/mL, heating at 50° C.) | Dissolution After Heating (PEG 400 mono-laurate 100%, M4N 50 mg/mL, heating at 50° C.) | Dissolution After Heating (Propylene Glycol 100% (w/v), M4N 1 mg/mL, heating at 55° C.) | Dissolution After Heating (Propylene Glycol 100% (w/v), M4N 10 mg/mL, heating at 55° C.) | Dissolution After Heating (Propylene Glycol 100% (w/v), M4N 20 mg/mL, heating at 55° C.)
